## Screening data

Source: PubChem BioAssay AID1224904 (Broad Institute, 2016).

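Selective DUX4 reporter inhibition in doxycycline-induced 293T-iDUX4 cells, scored as Gaussia percent activity minus Italica percent activity, after a 24-hour treatment. The test concentration is not given here. Percent difference between the Gaussia and Italica channels; more negative values mean more selective suppression of the DUX4 reporter, and higher values mean less activity.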

Values are in %. The controls that fix the scale are not given here. Common to all entries: measured here: selective DUX4 reporter inhibition. This is a side read-out of the assay, for part of the compounds, not drawn at random.

Result for O=S(=O)(c1ccc(F)cc1)N1CCCCN2[C@H](C1)[C@H](c1ccc(C#CC3CC3)cc1)[C@@H]2CO was Gaussia minus Italica difference -1.885%.
Result for O=S(=O)(Cc1ccccc1)N1[C@H](CO)[C@@H](c2ccccc2)C12CN(CCC(F)(F)F)C2 was Gaussia minus Italica difference -15.92%.
Result for N#C[C@H]1[C@@H](c2ccccc2C2=CCCC2)[C@@H](CO)N1C(=O)NC1CCCCC1 was Gaussia minus Italica difference -3.367%.
Result for C[C@@H]1CN([C@H](C)CO)C(=O)c2c(c3ccccc3n2C)-c2ccccc2CO[C@H]1CN(C)C(=O)Nc1cccc(Cl)c1Cl was Gaussia minus Italica difference -4.95%.
Result for COc1cccc(-c2ccc3c(c2)[C@H]2[C@H](CCN2C(=O)c2cccc(F)c2)[C@H](CO)N3)c1 was Gaussia minus Italica difference 1.604%.
Result for COc1ccccc1S(=O)(=O)N1CC[C@@H]2[C@@H](CO)N(C)c3ccc(-c4ccc(F)cc4)cc3[C@@H]21 was Gaussia minus Italica difference -9.752%.
Result for COc1ccc(S(=O)(=O)N[C@H]2C=C[C@@H](CC(=O)N3CCC(Cc4ccccc4)CC3)O[C@H]2CO)cc1 was Gaussia minus Italica difference -9.305%.
Result for Cc1cccc(-c2ccc([C@H]3[C@@H](CO)N4C(=O)CN(C(=O)c5ccc6c(c5)OCO6)C[C@@H]34)cc2)c1 was Gaussia minus Italica difference -5.675%.
Result for O=C(CC1CC1)N1CC(=O)N2[C@@H](CO)[C@@H](c3ccc(C#Cc4cccc(F)c4)cc3)[C@@H]2C1 was Gaussia minus Italica difference -5.457%.
Result for CO[C@H]1CN(C)C(=O)c2cc(NC(=O)c3ccc4c(c3)OCO4)ccc2OC[C@@H](C)N(CCC(F)(F)F)C[C@@H]1C was Gaussia minus Italica difference -16.9%.
Result for COc1cccc(NC(=O)N2CC(=O)N3[C@@H](CO)[C@@H](c4ccc(C#CCC5CCCC5)cc4)[C@@H]3C2)c1 was Gaussia minus Italica difference -23.07%.
Result for COc1ccccc1S(=O)(=O)N1C[C@@H]2N[C@H](C1)C2c1ccc(-c2cccc(C)c2)cc1 (some centres not stated) was Gaussia minus Italica difference -6.956%.
Result for COc1ccc(C#Cc2ccc([C@H]3[C@@H](CO)N4CCCCN(C)C[C@H]34)cc2)cc1 was Gaussia minus Italica difference -22.06%.
Result for C/C=C/c1ccc([C@H]2[C@H](CO)N(S(=O)(=O)Cc3ccccc3)C23CN(C(=O)C2CCCC2)C3)cc1 was Gaussia minus Italica difference -6.93%.
Result for COc1ccccc1C#Cc1ccc2c(c1)[C@H]1[C@H](CCN1C(=O)c1ccccc1)[C@H](CO)N2 was Gaussia minus Italica difference -11.86%.
Result for CN1c2ccc(C#Cc3cccnc3)cc2[C@@H]2[C@@H](CCN2S(=O)(=O)c2ccc(F)cc2)[C@H]1CO was Gaussia minus Italica difference -13.19%.
Result for COCC(=O)N1CC2(CCN(Cc3ccccc3)CC2)c2c([nH]c3cc(OC)ccc23)[C@H]1CO was Gaussia minus Italica difference 19.09%.
Result for O=C(Nc1ccc2c(c1)[C@H]1C[C@H](CC(=O)N3CCc4ccccc4C3)O[C@H](CO)[C@H]1O2)c1cccnc1 was Gaussia minus Italica difference -4.198%.
Result for O=C(C[C@@H]1C[C@H]2c3cc(NS(=O)(=O)c4ccc(F)cc4)ccc3O[C@H]2[C@@H](CO)O1)NCc1ccc(Cl)cc1 was Gaussia minus Italica difference 1.578%.
Result for O=C(Nc1ccccc1F)N1CCCCN2[C@H](CO)[C@H](c3ccc(/C=C/c4ccccc4)cc3)[C@H]2C1 was Gaussia minus Italica difference -3.575%.
Result for C[C@@H]1CN([C@H](C)CO)C(=O)c2c(c3ccccc3n2C)-c2ccccc2CO[C@@H]1CN(C)S(=O)(=O)c1ccc(F)cc1 was Gaussia minus Italica difference -15.84%.

Once more, the final 2:

Result for O=C(Nc1ccccc1F)N1CCCCN2[C@H](CO)[C@H](c3ccc(/C=C/c4ccccc4)cc3)[C@H]2C1 was Gaussia minus Italica difference -3.575%.
Result for C[C@@H]1CN([C@H](C)CO)C(=O)c2c(c3ccccc3n2C)-c2ccccc2CO[C@@H]1CN(C)S(=O)(=O)c1ccc(F)cc1 was Gaussia minus Italica difference -15.84%.